Experimental data taken from article PMC7333391.
Results are given in words; binding and its absence hold for the method and conditions named. Binding seen in cells or lysates may run through a third protein. Some binding calls cover weakened binding; strength is not graded here.

Chains of the proteins cited; added tags and fusions are not shown. Lines headed by an entry give the natural chain unless they say otherwise; changes in a name come on top. A line that says so, or that is headed by a name, gives the form on record, which may keep a tag or linker. Residues count along the entry.
UniProt P68104: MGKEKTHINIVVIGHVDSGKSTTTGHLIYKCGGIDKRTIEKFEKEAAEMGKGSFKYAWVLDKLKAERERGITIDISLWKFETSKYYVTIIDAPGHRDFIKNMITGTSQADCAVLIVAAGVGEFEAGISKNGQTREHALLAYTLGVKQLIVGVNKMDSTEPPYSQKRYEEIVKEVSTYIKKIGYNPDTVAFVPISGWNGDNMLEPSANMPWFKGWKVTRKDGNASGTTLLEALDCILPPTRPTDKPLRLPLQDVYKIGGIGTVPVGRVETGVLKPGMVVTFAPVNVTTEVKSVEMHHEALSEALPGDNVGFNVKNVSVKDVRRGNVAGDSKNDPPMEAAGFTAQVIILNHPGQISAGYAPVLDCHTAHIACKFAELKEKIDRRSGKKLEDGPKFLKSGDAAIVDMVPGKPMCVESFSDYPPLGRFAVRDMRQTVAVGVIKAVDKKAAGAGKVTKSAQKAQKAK
Myc-tagged eEF1A1-I (residues 1-240; pcDNA3.1-eEF1A1-I): residues 1-240 of P68104
UniProt P80200: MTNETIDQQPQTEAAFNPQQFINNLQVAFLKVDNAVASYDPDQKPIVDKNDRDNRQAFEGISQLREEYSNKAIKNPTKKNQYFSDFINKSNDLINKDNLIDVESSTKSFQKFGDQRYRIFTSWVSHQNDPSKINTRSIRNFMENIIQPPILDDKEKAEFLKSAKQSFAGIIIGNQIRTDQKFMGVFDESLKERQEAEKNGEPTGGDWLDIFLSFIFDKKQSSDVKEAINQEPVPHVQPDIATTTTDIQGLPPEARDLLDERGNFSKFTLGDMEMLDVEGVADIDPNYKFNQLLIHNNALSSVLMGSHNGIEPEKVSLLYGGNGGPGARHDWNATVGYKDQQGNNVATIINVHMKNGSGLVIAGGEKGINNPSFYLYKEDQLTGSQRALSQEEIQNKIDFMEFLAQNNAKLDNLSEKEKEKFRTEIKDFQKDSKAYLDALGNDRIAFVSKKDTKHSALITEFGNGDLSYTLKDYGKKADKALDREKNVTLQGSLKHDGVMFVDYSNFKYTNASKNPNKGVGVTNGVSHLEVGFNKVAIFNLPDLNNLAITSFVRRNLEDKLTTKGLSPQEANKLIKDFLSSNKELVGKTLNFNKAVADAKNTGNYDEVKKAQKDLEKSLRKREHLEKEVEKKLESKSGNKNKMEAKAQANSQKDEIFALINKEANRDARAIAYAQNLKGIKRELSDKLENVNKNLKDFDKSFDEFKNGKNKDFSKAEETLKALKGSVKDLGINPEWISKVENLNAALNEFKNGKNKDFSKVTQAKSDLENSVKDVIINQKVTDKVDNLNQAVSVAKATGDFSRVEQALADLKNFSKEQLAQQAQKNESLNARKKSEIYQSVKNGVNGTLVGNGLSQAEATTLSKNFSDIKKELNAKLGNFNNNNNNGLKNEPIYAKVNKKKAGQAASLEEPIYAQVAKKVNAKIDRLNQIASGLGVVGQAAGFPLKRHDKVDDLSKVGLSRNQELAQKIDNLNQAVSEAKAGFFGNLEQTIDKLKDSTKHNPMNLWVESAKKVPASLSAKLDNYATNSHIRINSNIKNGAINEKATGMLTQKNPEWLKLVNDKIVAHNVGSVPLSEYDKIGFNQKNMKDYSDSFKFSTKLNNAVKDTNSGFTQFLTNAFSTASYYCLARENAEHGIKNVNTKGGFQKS
UniProt Q05655: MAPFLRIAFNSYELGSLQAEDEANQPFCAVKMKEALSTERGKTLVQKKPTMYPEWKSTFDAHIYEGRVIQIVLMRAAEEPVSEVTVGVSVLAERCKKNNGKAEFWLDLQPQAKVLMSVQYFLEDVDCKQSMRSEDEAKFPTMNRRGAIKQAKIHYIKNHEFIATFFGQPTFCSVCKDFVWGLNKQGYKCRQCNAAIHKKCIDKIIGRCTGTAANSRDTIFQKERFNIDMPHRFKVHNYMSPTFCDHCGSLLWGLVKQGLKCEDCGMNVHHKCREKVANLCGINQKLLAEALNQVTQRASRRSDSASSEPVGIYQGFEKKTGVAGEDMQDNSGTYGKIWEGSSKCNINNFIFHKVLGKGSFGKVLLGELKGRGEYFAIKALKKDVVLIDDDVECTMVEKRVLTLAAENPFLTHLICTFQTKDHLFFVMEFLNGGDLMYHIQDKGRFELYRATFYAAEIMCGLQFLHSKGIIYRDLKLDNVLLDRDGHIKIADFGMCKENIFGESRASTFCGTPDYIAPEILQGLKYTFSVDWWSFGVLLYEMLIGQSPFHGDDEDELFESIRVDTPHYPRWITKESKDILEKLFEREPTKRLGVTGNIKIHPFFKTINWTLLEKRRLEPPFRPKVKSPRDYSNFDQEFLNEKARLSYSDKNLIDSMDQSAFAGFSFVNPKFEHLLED

Experiments:
[1] = target: Myc-tagged eukaryotic translation elongation factor 1-alpha 1 (pcDNA3.1-Myc-eEF1A1) (UniProt P68104); assay: co-IP; lysates of AGS cells (untransfected or overexpressing Myc-tagged eEF1A1 or its segments) infected with H. pylori NCTC11637 or NCTC11637ΔcagA; primary antibody and protein A/G Plus-Agarose overnight at 4 °C; western blot with anti-CagA and anti-Myc or anti-eEF1A1
[2] = target: Myc-tagged eEF1A1-I (residues 1-240; pcDNA3.1-eEF1A1-I) (UniProt P68104); assay: as above
[3] = target: eukaryotic translation elongation factor 1-alpha 1, endogenous in AGS cells (human (endogenous in AGS)) (UniProt P68104); assay: as above
[4] = target: eukaryotic translation elongation factor 1-alpha 1, endogenous in AGS cells (human (endogenous in AGS)) (UniProt P68104); assay: co-IP; precipitates compared with and without CagA; cells and precipitating antibody not told for this experiment

| Substance | binding [1] | binding [2] | binding [3] | binding [4] |
| --- | --- | --- | --- | --- |
| Cytotoxin-associated gene A protein (CagA) of H. pylori NCTC11637, delivered by infection (from UniProt P80200 1-1147) | binds | binds | binds | – |
| protein kinase Cδ (PKCδ) (from UniProt Q05655 1-676) (enzyme) | – | – | – | binds |
